Experimental findings from article PMC6718408 are described below.

Protein sequences, listed by entry. Tags and fused reporters are not part of them.
UniProt Q02780: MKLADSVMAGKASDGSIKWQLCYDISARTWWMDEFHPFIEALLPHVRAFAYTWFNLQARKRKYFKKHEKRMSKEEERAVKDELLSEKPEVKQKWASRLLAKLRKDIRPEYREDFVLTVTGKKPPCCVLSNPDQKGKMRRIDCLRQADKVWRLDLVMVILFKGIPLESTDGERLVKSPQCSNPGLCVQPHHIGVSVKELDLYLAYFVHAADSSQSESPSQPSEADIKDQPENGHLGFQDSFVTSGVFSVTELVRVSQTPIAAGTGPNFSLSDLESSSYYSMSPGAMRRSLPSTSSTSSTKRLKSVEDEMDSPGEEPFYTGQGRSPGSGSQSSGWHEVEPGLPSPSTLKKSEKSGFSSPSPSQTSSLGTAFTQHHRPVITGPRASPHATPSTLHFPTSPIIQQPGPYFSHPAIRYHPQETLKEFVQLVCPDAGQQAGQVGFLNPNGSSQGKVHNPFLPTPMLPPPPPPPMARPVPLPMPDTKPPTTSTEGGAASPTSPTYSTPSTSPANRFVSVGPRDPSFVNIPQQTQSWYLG

These are yes or no findings as the source states them, for the method shown. Binding seen in cells or lysates may run through a third protein.

One experiment deals with Flag-tagged Nfib (UniProt P97863). In words: co-IP; HEK293T co-transfected with Flag-tagged Nfia or Nfib and HA-tagged YAP1 fusion-related proteins; lysed 2 days after transfection in IP buffer (20 mM Tris-HCl pH 8.0, 200 mM NaCl, 1 mM EDTA, 1 mM EGTA, 1% Triton X-100); anti-FLAG M2 magnetic beads, 4 h at RT; western blot.
For another experiment, the target named is Flag-tagged Nfia (UniProt Q02780). The description is as above.

As to “YAP1 wild type, HA-tagged (from UniProt P46937-1 1-504)”, the binding entry in the experiment with Flag-tagged Nfib and with Flag-tagged Nfia was “no binding” each time.
